Experimental findings from the supplement of paper PMC10849652 are described below.

By UniProt entry, the sequences of proteins in these tests, tags left out. Where a name states a change or a piece, a line headed by the entry shows the natural chain unless it says otherwise.
UniProt Q9Y4C2: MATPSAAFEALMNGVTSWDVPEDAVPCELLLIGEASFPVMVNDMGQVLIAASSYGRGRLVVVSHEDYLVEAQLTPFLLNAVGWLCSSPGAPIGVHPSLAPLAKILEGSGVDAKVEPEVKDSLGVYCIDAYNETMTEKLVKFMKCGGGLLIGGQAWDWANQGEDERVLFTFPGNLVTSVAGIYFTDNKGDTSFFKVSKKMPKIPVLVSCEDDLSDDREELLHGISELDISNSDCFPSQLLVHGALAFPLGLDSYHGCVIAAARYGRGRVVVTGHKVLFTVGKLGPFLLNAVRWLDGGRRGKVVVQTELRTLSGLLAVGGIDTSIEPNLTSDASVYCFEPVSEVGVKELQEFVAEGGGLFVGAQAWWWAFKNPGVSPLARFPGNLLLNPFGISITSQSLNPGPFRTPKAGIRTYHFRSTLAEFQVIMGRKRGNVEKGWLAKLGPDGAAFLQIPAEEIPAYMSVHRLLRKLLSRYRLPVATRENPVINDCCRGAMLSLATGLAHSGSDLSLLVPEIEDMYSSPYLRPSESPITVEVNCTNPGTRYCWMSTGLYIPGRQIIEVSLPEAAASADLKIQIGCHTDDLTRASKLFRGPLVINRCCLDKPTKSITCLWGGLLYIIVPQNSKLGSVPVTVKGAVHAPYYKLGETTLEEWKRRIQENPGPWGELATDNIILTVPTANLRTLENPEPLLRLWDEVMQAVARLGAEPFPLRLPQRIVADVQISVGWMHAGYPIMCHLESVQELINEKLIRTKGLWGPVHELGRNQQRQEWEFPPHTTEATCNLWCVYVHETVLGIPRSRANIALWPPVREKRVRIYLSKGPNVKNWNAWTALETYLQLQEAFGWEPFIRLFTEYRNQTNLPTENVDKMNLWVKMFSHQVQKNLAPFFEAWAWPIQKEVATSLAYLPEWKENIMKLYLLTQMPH
UniProt P37802: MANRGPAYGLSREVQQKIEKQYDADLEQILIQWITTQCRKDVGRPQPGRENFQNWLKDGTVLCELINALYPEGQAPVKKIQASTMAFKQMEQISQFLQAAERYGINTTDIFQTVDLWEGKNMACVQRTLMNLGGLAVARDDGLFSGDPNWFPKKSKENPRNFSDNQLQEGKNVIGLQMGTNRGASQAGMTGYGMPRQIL
UniProt Q9P2M4: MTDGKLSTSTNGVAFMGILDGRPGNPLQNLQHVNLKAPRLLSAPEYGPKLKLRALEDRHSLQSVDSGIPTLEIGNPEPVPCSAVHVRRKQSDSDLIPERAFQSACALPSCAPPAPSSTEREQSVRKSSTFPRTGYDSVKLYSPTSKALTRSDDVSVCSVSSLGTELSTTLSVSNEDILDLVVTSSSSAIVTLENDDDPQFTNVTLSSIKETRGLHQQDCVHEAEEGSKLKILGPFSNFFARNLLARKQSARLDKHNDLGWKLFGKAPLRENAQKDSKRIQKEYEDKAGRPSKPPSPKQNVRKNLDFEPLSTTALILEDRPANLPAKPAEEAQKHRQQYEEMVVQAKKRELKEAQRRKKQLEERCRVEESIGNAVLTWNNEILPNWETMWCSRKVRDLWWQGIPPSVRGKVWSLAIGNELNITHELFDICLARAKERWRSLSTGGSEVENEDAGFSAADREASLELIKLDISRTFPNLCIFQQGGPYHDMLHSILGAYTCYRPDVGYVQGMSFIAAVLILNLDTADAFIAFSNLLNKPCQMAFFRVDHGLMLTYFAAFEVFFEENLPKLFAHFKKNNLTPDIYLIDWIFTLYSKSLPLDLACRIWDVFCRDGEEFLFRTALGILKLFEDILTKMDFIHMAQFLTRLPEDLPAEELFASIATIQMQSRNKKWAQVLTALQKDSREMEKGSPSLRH
UniProt Q92734, whole entry, looked up: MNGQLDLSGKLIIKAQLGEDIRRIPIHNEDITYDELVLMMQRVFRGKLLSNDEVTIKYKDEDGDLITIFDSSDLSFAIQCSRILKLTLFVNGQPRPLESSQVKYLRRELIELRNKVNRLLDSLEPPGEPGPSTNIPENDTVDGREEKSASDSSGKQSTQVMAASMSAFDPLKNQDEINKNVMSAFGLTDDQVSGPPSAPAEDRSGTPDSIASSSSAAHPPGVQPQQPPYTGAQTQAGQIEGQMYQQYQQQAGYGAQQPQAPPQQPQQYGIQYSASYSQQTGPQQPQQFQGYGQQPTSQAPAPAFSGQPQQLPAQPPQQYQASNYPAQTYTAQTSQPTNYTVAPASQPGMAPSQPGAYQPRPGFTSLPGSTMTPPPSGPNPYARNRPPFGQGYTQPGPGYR
UniProt Q9UP52: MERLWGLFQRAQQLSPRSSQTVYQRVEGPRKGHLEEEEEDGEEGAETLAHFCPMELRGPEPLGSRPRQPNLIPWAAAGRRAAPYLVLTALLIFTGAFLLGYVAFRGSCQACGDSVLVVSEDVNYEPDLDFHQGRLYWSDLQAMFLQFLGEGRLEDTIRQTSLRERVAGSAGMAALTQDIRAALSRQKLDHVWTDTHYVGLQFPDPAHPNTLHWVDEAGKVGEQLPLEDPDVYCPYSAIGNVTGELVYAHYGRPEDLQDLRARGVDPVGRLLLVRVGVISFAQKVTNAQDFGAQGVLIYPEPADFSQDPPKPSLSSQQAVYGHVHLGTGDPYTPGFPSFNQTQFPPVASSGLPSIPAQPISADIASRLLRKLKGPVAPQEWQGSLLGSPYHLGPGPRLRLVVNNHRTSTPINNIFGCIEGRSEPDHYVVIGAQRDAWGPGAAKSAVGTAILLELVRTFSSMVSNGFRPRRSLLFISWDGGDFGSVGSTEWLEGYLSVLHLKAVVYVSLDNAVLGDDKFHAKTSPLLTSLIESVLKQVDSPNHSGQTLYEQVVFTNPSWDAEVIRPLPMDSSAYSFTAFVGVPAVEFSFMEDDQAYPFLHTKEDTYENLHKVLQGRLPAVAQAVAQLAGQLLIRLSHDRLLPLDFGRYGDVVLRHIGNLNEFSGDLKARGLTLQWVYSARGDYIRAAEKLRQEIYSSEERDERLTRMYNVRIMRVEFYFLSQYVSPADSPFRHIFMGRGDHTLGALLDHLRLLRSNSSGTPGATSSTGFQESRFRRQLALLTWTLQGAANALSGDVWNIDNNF
UniProt Q15545, whole entry, looked up: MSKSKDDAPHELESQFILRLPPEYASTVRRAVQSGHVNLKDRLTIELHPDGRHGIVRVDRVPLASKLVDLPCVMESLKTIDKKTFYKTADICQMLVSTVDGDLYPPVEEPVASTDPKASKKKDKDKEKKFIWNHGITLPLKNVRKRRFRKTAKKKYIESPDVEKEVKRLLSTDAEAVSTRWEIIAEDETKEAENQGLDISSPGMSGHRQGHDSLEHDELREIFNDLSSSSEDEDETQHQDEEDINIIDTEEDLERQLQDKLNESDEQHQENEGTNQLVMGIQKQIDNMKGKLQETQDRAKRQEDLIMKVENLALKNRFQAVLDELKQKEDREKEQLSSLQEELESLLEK
UniProt Q9C0B7: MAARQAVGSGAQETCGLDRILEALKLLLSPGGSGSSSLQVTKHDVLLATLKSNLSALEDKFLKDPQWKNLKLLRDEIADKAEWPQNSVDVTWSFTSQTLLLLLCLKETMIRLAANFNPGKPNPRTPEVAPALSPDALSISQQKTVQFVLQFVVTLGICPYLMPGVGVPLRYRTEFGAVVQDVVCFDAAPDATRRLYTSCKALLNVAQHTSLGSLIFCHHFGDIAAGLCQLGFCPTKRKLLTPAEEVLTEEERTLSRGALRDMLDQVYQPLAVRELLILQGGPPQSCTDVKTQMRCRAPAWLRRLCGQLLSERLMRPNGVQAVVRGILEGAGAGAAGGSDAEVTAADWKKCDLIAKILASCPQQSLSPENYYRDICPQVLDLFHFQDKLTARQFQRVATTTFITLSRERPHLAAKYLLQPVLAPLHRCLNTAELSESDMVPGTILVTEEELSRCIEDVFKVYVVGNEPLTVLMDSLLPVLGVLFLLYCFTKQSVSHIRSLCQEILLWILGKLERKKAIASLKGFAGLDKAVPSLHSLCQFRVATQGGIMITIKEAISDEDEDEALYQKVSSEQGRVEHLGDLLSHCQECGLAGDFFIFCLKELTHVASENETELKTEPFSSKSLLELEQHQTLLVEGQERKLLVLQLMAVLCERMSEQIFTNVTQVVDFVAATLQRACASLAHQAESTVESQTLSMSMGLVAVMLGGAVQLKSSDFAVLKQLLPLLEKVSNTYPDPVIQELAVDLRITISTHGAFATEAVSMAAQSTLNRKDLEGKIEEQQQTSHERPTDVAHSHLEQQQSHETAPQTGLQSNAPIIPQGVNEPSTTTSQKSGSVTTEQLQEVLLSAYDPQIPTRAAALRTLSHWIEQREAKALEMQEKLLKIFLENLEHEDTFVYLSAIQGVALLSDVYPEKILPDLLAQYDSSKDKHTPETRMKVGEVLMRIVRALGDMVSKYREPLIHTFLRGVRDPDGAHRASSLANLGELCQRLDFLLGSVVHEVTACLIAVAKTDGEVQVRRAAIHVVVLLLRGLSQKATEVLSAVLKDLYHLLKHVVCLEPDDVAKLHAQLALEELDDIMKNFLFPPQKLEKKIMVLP
UniProt O75347: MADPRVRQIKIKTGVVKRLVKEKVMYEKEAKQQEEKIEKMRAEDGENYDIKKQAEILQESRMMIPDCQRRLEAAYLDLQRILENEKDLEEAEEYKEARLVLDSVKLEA
UniProt Q9BXI6: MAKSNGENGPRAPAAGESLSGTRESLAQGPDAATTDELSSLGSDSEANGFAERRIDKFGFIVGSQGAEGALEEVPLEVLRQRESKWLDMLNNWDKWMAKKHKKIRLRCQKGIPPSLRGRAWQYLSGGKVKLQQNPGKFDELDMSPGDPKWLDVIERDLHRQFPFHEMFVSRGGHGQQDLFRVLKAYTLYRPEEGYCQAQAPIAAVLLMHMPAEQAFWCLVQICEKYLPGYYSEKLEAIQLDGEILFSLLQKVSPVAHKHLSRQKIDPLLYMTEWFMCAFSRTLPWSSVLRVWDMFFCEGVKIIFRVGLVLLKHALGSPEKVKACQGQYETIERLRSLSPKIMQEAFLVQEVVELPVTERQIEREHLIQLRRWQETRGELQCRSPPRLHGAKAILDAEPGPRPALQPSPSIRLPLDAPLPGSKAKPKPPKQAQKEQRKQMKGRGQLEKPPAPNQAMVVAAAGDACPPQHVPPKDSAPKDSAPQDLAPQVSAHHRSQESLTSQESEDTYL
UniProt Q9H5Q4: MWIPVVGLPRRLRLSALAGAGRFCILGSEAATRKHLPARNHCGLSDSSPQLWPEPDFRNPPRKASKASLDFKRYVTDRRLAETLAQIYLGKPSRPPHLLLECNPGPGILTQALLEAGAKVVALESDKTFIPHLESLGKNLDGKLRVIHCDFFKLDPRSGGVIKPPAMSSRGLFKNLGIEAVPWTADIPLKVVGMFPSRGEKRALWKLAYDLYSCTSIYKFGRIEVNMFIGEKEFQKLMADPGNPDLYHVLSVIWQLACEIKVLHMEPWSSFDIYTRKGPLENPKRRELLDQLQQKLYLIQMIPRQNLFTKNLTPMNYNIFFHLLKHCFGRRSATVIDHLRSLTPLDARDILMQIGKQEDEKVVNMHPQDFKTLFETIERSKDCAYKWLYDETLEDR
UniProt Q8NHU6: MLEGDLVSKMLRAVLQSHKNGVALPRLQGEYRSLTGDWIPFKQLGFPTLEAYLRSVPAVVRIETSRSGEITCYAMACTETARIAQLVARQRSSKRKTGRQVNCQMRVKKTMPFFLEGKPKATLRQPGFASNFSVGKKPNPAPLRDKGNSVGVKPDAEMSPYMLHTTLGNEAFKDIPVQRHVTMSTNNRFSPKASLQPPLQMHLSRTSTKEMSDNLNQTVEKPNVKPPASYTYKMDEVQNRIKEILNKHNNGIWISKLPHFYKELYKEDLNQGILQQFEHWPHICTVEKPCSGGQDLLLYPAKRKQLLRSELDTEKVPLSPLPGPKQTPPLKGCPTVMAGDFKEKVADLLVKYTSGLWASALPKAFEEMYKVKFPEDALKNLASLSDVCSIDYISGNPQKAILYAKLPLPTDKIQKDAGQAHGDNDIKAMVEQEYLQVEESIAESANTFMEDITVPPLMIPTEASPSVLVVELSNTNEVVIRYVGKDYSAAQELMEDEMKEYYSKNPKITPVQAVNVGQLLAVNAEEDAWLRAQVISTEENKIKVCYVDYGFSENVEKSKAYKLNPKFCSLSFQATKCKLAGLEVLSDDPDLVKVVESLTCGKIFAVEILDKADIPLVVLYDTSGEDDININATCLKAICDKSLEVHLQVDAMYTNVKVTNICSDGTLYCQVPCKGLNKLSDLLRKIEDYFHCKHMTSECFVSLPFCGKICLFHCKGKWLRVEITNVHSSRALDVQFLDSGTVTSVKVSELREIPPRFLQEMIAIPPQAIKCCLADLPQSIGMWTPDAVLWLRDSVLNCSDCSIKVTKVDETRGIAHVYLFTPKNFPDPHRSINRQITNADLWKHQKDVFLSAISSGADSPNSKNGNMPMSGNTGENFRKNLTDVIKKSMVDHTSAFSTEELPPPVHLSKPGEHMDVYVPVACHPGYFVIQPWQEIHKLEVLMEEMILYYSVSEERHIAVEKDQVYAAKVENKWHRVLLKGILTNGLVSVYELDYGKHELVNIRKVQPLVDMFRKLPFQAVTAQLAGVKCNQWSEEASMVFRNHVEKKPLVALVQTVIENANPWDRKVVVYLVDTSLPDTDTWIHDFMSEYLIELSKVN

Some of the results follow.

Compound in one assay: Cn1cncc1[C@@](N)(c1ccc(Cl)cc1)c1ccc2c(c1)c(-c1cccc(Cl)c1)cc(=O)n2C [tipifarnib]
In words: log2 fold change, soluble protein after heating vs DMSO (PISA); higher = thermal stabilisation; K562 lysate, 10 uM; active = over 0.2 and 3.5 SD of the protein, either way, in both replicates (recomputed). The method, boiled down: (§1)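 A 30 min treatment with 10 μM compound was applied to crude K562 extract at 1 mg/mL protein in PBS pH 7.4 with 1 mM MgCl2. Heating for 3 min spanned 48°C-58°C, after which aliquots were pooled, adjusted to 0.5% NP-40 at 4°C and spun at 21,000xg for 90 min. TMTpro 16plex LC-MS/MS of the supernatant, with channel sums equalised, gave values recorded as log-two fold change in thermal stability against solvent controls, from duplicates.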
For TCAF1 (UniProt Q9Y4C2), the log2 fold change is inactive: 0.005.

Consider TARS1 (UniProt P26639), for which the log2 fold change is inactive: -0.006.

In the case of TEX30 (UniProt Q5JUR7), the log2 fold change was inactive: 0.

For TATDN3 isoform 3 (UniProt Q17R31), the log2 fold change is inactive: 0.01.

As for TAGLN2 isoform 2 (UniProt P37802), the log2 fold change is inactive: 0.005.

For the target TAF6L (UniProt Q9Y6J9), the log2 fold change is inactive: -0.032.

As for TATDN1 (UniProt Q6P1N9), the log2 fold change was inactive: 0.02.

On to TAOK1 (UniProt Q7L7X3), for which the log2 fold change was inactive: 0.062.

As to TBCB (UniProt Q99426), the log2 fold change was inactive: 0.005.

On to TFCP2 (UniProt Q12800), for which the log2 fold change was inactive: -0.022.

In the case of TBL3 (UniProt Q12788), the log2 fold change is inactive: 0.008.

For the target TARBP2 (UniProt Q15633), the log2 fold change is inactive: -0.067.

Take TFIP11 (UniProt Q9UBB9): the log2 fold change is inactive: -0.005.

For TBCE (UniProt Q15813), the log2 fold change was inactive: -0.005.

Consider TBC1D14 (UniProt Q9P2M4), for which the log2 fold change is inactive: -0.125.

Take TFG (UniProt Q92734): the log2 fold change was inactive: 0.032.

As for TCERG1 (UniProt O14776), the log2 fold change is inactive: 0.012.

As to TDRD3 isoform 3 (UniProt Q9H7E2), the log2 fold change was inactive: -0.152.

On to TFR2 (UniProt Q9UP52), for which the log2 fold change is inactive: -0.029.

For the target TBC1D23 (UniProt Q9NUY8), the log2 fold change is inactive: 0.018.

On to TEX10 (UniProt Q9NXF1), for which the log2 fold change is inactive: 0.

As for TBC1D2 (UniProt Q9BYX2), the log2 fold change was inactive: -0.021.

As to TAF7 (UniProt Q15545), the log2 fold change is inactive: -0.036.

For TBL1XR1 (UniProt Q9BZK7), the log2 fold change was inactive: -0.055.

With TANGO6 (UniProt Q9C0B7), the log2 fold change is inactive: 0.044.

As for TDP1 (UniProt Q9NUW8), the log2 fold change was inactive: 0.003.

TAOK2 (UniProt Q9UL54): the log2 fold change is inactive: 0.033.

For the target TBC1D10B (UniProt Q4KMP7), the log2 fold change is inactive: 0.026.

For the target TCF12 isoform 3 (UniProt Q99081), the log2 fold change was inactive: -0.022.

TCOF1 isoform 6 (UniProt Q13428): the log2 fold change is inactive: 0.077.

Consider TCF4 (UniProt P15884), for which the log2 fold change was inactive: -0.147.

For the target TDG (UniProt Q13569), the log2 fold change is inactive: 0.012.

Take TBCA (UniProt O75347): the log2 fold change is inactive: 0.016.

As for TBC1D10A (UniProt Q9BXI6), the log2 fold change is inactive: -0.009.

Take TAOK3 (UniProt Q9H2K8): the log2 fold change was inactive: 0.007.

With TFB2M (UniProt Q9H5Q4), the log2 fold change was inactive: -0.003.

As to TDRD7 (UniProt Q8NHU6), the log2 fold change was inactive: -0.019.

For the target TF (UniProt P02787), the log2 fold change was inactive: -0.007.

As for TERF2 (UniProt Q15554), the log2 fold change was inactive: 0.006.

Compound in a further assay: NC(=O)Nc1cc(-c2cccc(F)c2)sc1C(=O)N[C@H]1CCCNC1
The description is as above. The method, boiled down: as §1
On to TCAF1 (UniProt Q9Y4C2), for which the log2 fold change was inactive: 0.037.

Regarding TARS1 (UniProt P26639), the log2 fold change was inactive: -0.011.

For TEX30 (UniProt Q5JUR7), the log2 fold change is inactive: 0.046.

TATDN3 isoform 3 (UniProt Q17R31): the log2 fold change is inactive: 0.011.

In the case of TAGLN2 isoform 2 (UniProt P37802), the log2 fold change was inactive: -0.012.

For TAF6L (UniProt Q9Y6J9), the log2 fold change was inactive: 0.094.

Consider TATDN1 (UniProt Q6P1N9), for which the log2 fold change was inactive: 0.004.

As for TAOK1 (UniProt Q7L7X3), the log2 fold change is inactive: -0.007.

Turning to TBCB (UniProt Q99426), the log2 fold change is inactive: 0.005.

Consider TFCP2 (UniProt Q12800), for which the log2 fold change is inactive: 0.066.

For TBL3 (UniProt Q12788), the log2 fold change is inactive: 0.056.

With TARBP2 (UniProt Q15633), the log2 fold change is inactive: 0.065.

TFIP11 (UniProt Q9UBB9): the log2 fold change was inactive: 0.048.

For the target TBCE (UniProt Q15813), the log2 fold change was inactive: 0.033.

As for TBC1D14 (UniProt Q9P2M4), the log2 fold change was inactive: -0.027.

On to TFG (UniProt Q92734), for which the log2 fold change is inactive: -0.028.

For the target TCERG1 (UniProt O14776), the log2 fold change was inactive: 0.

Consider TDRD3 isoform 3 (UniProt Q9H7E2), for which the log2 fold change is inactive: 0.042.

As for TFR2 (UniProt Q9UP52), the log2 fold change is inactive: 0.006.

Take TBC1D23 (UniProt Q9NUY8): the log2 fold change was inactive: 0.01.

As for TEX10 (UniProt Q9NXF1), the log2 fold change is inactive: -0.013.

Regarding TBC1D2 (UniProt Q9BYX2), the log2 fold change was inactive: 0.075.

Regarding TAF7 (UniProt Q15545), the log2 fold change is inactive: 0.002.

For the target TBL1XR1 (UniProt Q9BZK7), the log2 fold change is inactive: 0.016.

As to TANGO6 (UniProt Q9C0B7), the log2 fold change is inactive: 0.046.

On to TDP1 (UniProt Q9NUW8), for which the log2 fold change was inactive: 0.01.

For TAOK2 (UniProt Q9UL54), the log2 fold change is inactive: 0.022.

As to TBC1D10B (UniProt Q4KMP7), the log2 fold change is inactive: 0.011.

As to TCF12 isoform 3 (UniProt Q99081), the log2 fold change was inactive: -0.011.

On to TCOF1 isoform 6 (UniProt Q13428), for which the log2 fold change is inactive: 0.005.

On to TCF4 (UniProt P15884), for which the log2 fold change is inactive: 0.064.

For the target TDG (UniProt Q13569), the log2 fold change was inactive: -0.051.

In the case of TBCA (UniProt O75347), the log2 fold change is inactive: -0.074.

Consider TBC1D10A (UniProt Q9BXI6), for which the log2 fold change is inactive: 0.056.

On to TAOK3 (UniProt Q9H2K8), for which the log2 fold change was inactive: -0.003.

On to TFB2M (UniProt Q9H5Q4), for which the log2 fold change was inactive: 0.019.

Consider TDRD7 (UniProt Q8NHU6), for which the log2 fold change is inactive: 0.081.

Regarding TF (UniProt P02787), the log2 fold change was inactive: 0.023.

As for TERF2 (UniProt Q15554), the log2 fold change was inactive: 0.028.
